At least one compound was matched to its structure with a doubt left. Some entries repeat one wording, which the source may state once for all of them.
Molecular target: T1, human GPR119 receptor (Homo sapiens, UniProt Q8TDV5)
T1 construct: host or cells: GeneBLAzer T-Rex GPR 119 CHO-K1 DA cells (CHO-K1)
T1 sequence (Q8TDV5 1-335): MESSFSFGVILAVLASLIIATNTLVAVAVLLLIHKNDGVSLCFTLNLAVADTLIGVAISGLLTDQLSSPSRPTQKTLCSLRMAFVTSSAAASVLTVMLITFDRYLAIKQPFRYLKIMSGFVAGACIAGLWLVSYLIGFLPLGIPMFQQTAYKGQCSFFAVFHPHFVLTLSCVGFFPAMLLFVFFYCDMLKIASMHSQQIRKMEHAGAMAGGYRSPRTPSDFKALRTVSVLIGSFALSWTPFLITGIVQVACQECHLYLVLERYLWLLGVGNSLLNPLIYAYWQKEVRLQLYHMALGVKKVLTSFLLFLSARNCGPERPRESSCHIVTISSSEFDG
Assay: Activity test for human GPR119 receptor (GeneBLAzer T-Rex GPR 119 CHO-K1 DA cells)
Type: cell-based
Settings: judgement on the EC50 values of Table 11
Protocol: 1. Human GPR119 Receptor Cell
As a human GPR119 receptor expression cell for this test, the cell line “GeneBLAzer™ T-Rex GPR 119 CHO-K1 DA cells” that is commercially available from Invitrogen, was used. The cell was incubated in the DMEM media containing 1% dialyzed fetal bovine serum etc. The cell incubator was kept at constant temperature and constant humidity of 37° C., 5% CO2.
2. Activity Test for Human GPR119 Receptor
The human GPR119 receptor expressing cell was used to this test. Each of test compounds was added to be final concentrations of 0.1, 1, 10 μM in 96 well and tested in duplicate. A fixed amount of cell was added to each well of 96 well separately, and then treated with the test compound for 5 hours. After treatment of color development agent for 2 hours, the fluorescence value was determined with plate reader. To the luminous wavelength of control well, which was not treated with the sample, but in which only a vehicle […] was contained, the ratio of the luminous wavelength of test well, which was treated with the sample, was calculated, and then converted to obtain EC50 value.
3. Statistical Processing
All the results were expressed as mean±SD, and each test groups and the control group were compared using student's t-test to adjudge the effects of each test groups.

Activity for human GPR119 receptor (in words), excellent activity:
CCC(F)(CC)CN1CCC(COc2ccc(-c3ccc(C(=O)N4C[C@H](O)C[C@H]4C(N)=O)cc3F)cc2)CC1 [Compound 1205]
NC(=O)[C@@H]1C[C@H](F)CN1C(=O)c1ccc(-c2cnc(OCC3CCN(CC4(C(F)(F)F)CCC4)CC3)cn2)cc1 [Compound 1209, (2S,4S)-4-fluoro-1-(4-(5-((1-((1-(trifluoromethyl)cyclobutyl)methyl)piperidin-4-yl)methoxy)pyrazin-2-yl)benzoyl)pyrrolidin-2-carboxamide]
CCC(F)(F)CN1CCC(COc2ccc(-c3ccc(C(=O)N4CCC[C@H]4C(N)=O)c(F)c3)cn2)CC1 [Compound 1238, (S)-1-(4-(6-((1-(2,2-difluorobutyl)piperidin-4-yl)methoxy)pyridin-3-yl)-2-fluorobenzoyl)pyrrolidin-2-carboxamide]
NC(=O)[C@@H]1C[C@@H](O)CN1C(=O)c1ccc(-c2ccc(OCC3CCN(CC(F)(F)C(F)(F)F)CC3)cc2)cc1F [Compound 1256, (2S,4R)-1-(3-fluoro-4′-((1-(2,2,3,3,3-pentafluoropropyl)piperidin-4-yl)methoxy)biphenylcarbonyl)-4-hydroxypyrrolidin-2-carboxamide]
NC(=O)[C@@H]1[C@@H](O)CCN1C(=O)c1ccc(-c2ccc(OCC3CCN(CC4(C(F)(F)F)CCC4)CC3)cc2)c(F)c1 [Compound 1220, (2S,3S)-1-(2-fluoro-4′-((1-((1-(trifluoromethyl)cyclobutyl)methyl)piperidin-4-yl)methoxy)biphenylcarbonyl)-3-hydroxypyrrolidin-2-carboxamide]
CCC(F)(CC)CN1CCC(COc2ccc(-c3ccc(C(=O)N4C[C@@H](F)C[C@H]4C(N)=O)c(F)c3)cc2)CC1 [Compound 1211, (2S,4S)-1-(4′-((1-(2-ethyl-2-fluorobutyl)piperidin-4-yl)methoxy)-3-fluorobiphenylcarbonyl)-4-fluoropyrrolidin-2-carboxamide]
CC(C)(CN1CCC(COc2ccc(-c3ccc(C(=O)N4C[C@H](O)C[C@H]4C(N)=O)c(F)c3)c(F)c2)CC1)C(F)(F)F [Compound 1240, (2S,4R)-1-(2′,3-difluoro-4′-((1-(3,3,3-trifluoro-2,2-dimethylpropyl)piperidin-4-yl)methoxy)biphenylcarbonyl)-4-hydroxypyrrolidin-2-carboxamide]
CCC(F)(CC)CN1CCC(COc2ccc(-c3ccc(C(=O)N4C[C@H](O)C[C@@]4(C)C(N)=O)cc3F)nc2)CC1 [Compound 1292, (2S,4R)-1-(4-(5-((1-(2-ethyl-2-fluorobutyl)piperidin-4-yl)methoxy)pyridin-2-yl)-3-fluorobenzoyl)-4-hydroxy-2-methylpyrrolidin-2-carboxamide]
CCC(F)(CC)CN1CCC(COc2ccc(-c3ccc(C(=O)N4C[C@@H](F)C[C@H]4C(N)=O)cc3F)cc2)CC1 [Compound 1210, (2S,4S)-1-(4′-((1-(2-ethyl-2-fluorobutyl)piperidin-4-yl)methoxy)-2-fluorobiphenylcarbonyl)-4-fluoropyrrolidin-2-carboxamide]
CCC(F)(CC)CN1CCC(COc2ccc(-c3ccc(C(=O)N4CC[C@H](O)[C@H]4C(N)=O)c(F)c3)cc2F)CC1 [Compound 1244, (2S,3S)-1-(4′-((1-(2-ethyl-2-fluorobutyl)piperidin-4-yl)methoxy)-3,3′-difluorobiphenylcarbonyl)-3-hydroxypyrrolidin-2-carboxamide]
CCC(F)(CC)CN1CCC(COc2ccc(-c3ccc(C(=O)N4CC[C@H](O)[C@H]4C(N)=O)cc3)c(F)c2)CC1 [Compound 1245, (2S,3S)-1-(4′-((1-(2-ethyl-2-fluorobutyl)piperidin-4-yl)methoxy)-2′-fluorobiphenylcarbonyl)-3-hydroxypyrrolidin-2-carboxamide]

From US9776987B2, “Amide derivatives for GPR119 agonist” (CHONG KUN DANG PHARMACEUTICAL CORP., priority 2013, dated 2017)
